# Data from the supplement of paper PMC4604168 (melanoma cell lines).
# This is one part of the list. Repeats are few or missing, and single values can be far off.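 The apoptosis fraction was the count of cleaved-PARP antibody-stained nuclei relative to all DNA-stained nuclei, imaged in 1,536-well plates. Screening doses were set so most cells survived, and baseline and induced cleaved-PARP levels vary greatly across cell lines.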
# What was measured:
# Experiment in all cases: cleaved PARP positive nuclei fraction relative to DMSO control; melanoma cells; higher = more apoptosis
# Details in all cases: library dose: low library concentration; 72 h
# WM115 = test system: WM115
# WM1716 = test system: WM1716
# WM1745 = test system: WM1745
# WM3526 = test system: WM3526
# WM3619 = test system: WM3619
# WM451Lu = test system: WM451Lu
SMILES,cleaved PARP positive nuclei fraction (WM115) [%],cleaved PARP positive nuclei fraction (WM1716) [%],cleaved PARP positive nuclei fraction (WM1745) [%],cleaved PARP positive nuclei fraction (WM3526) [%],cleaved PARP positive nuclei fraction (WM3619) [%],cleaved PARP positive nuclei fraction (WM451Lu) [%]
"NC(=O)c1ccc(N(C(N)=O)c2c(F)cccc2F)nc1-c1ccc(F)cc1F + O=C(CCCCCCC(=O)Nc1ccccc1)NO [vorinostat] (first compound 0.4 µM, partner dose 0.08 µM)",247,26.2,81.6,81,83,98.6
"COc1ccc(C2=N[C@@H](c3ccc(Cl)cc3)[C@@H](c3ccc(Cl)cc3)N2C(=O)N2CCNC(=O)C2)c(OC(C)C)c1 [Nutlin-3] + O=C(Nc1cccc(Cl)c1)Nc1ncc(CCNc2ncnc3ccsc23)s1 [SNS314] (first compound 0.1 µM, partner dose 0.0008 µM)",256,58.8,102,57.2,112,124
"Cn1cnc2c(F)c(Nc3ccc(Br)cc3Cl)c(C(=O)NOCCO)cc21 [selumetinib] + Cn1cncc1[C@@](N)(c1ccc(Cl)cc1)c1ccc2c(c1)c(-c1cccc(Cl)c1)cc(=O)n2C [tipifarnib] (first compound 0.015 µM, partner dose 0.01 µM)",223,114,175,79.5,143,106
"Cn1sc(=O)n(Cc2ccccc2)c1=O + CC(C)C[C@H](NC(=O)[C@H](Cc1ccccc1)NC(=O)c1cnccn1)B(O)O [Bortezomib] (first compound 0.4 µM, partner dose 0.001 µM)",117,73.8,93.1,239,107,54.1
"C[C@@H](N)c1ccc(C(=O)Nc2ccnc3[nH]ccc23)cc1 + O=C(O)C(=O)Nc1sc2c(c1C(=O)O)CCNC2 [TCS401] (first compound 0.4 µM, partner dose 1.66667 µM)",48.7,54.4,112,76.1,93.2,41.8
"CN(c1ncccc1CNc1nc(Nc2ccc3c(c2)CC(=O)N3)ncc1C(F)(F)F)S(C)(=O)=O + CCCS(=O)(=O)Nc1ccc(F)c(C(=O)c2c[nH]c3ncc(Cl)cc23)c1F [PLX4720] (first compound 0.08 µM, partner dose 0.08 µM)",50.4,144,110,44.1,93.4,95.4
"CN(c1ncccc1CNc1nc(Nc2ccc3c(c2)CC(=O)N3)ncc1C(F)(F)F)S(C)(=O)=O + O=C1NC(=O)/C(=C/c2ccc(-c3ccc(F)cc3O)o2)S1 [AS252424] (first compound 0.08 µM, partner dose 1 µM)",67.6,37.3,136,81,226,558
"NC(=O)c1ccc(N(C(N)=O)c2c(F)cccc2F)nc1-c1ccc(F)cc1F + COc1ccc(COc2ccc(Cc3cnc(N)nc3N)cc2OC)cc1 [GW2580] (first compound 0.4 µM, partner dose 1 µM)",345,391,94.6,83.9,2100,34.8
"C[C@@H](N)c1ccc(C(=O)Nc2ccnc3[nH]ccc23)cc1 + O=C1NC(=O)/C(=C/c2ccc(-c3ccc(F)cc3O)o2)S1 [AS252424] (first compound 0.4 µM, partner dose 1 µM)",215,2190,105,78.1,470,69.1
"C[C@@H](N)c1ccc(C(=O)Nc2ccnc3[nH]ccc23)cc1 + CC(C)(C)c1cnc(CSc2cnc(NC(=O)C3CCNCC3)s2)o1 [SNS-032] (first compound 0.4 µM, partner dose 0.01 µM)",152,246,125,78.2,201,66.3
"CN(c1ncccc1CNc1nc(Nc2ccc3c(c2)CC(=O)N3)ncc1C(F)(F)F)S(C)(=O)=O + Cn1cc(/C=C2\C(=O)Nc3cccnc32)c2ccccc21 [GW441756] (first compound 0.08 µM, partner dose 0.4 µM)",291,60.7,110,50.2,84.3,84.9
"C[C@]1(O)C[C@@H](c2nc(-c3ccc4ccc(-c5ccccc5)nc4c3)c3c(N)nccn32)C1 + Nc1nc(F)nc2c1ncn2[C@@H]1O[C@H](CO)[C@@H](O)[C@@H]1O [fludarabine] (first compound 0.4 µM, partner dose 0.2 µM)",60.9,68.5,133,154,108,199
